Measurements published in patent publication US20080161396A1, “Method of control of arthropod pests of game and pet birds” (priority 2006, published 2008).

Assay: Breeding success, brood size, chick survival and chick growth of red grouse (treated vs control hens/broods)
Assay type: in vivo, red grouse (Lagopus lagopus scoticus)
Experimental: The experiment was conducted on two sites located in the North of Scotland (March-October). In outline, on each Moor, hens were either treated with permethrin leg bands or with untreated band. After hatching, chicks from treated hens were also tagged and treated with permethrin partagial bands, while chicks from control brood were tagged but not treated with permethrin. The experiment was conducted on Tullybeagles Estate in Perthshire (hereafter referred as to Moor 1) and Forest of Birse Estate on Deeside (hereafter Moor 2). Both Moors are managed for grouse (heather burning, predator control, worm control) and had low grouse densities and low productivity in recent years.
Catching and treatment of hens. In spring (18 March-6 April), 40 hens were caught on Moor 1 and 20 on Moor 2. Each was randomly assigned to one of two treatments. Half the birds caught at each site were treated (i.e., given acaracide leg bands, two per bird), or kept as control (untreated bands). Hens were fitted with radio collars (TW-3, Biotrack) to facilitate relocation. Birds were aged, weighed, wing length measured and condition score recorded. All hens were dosed with anthelminthic (Levamisole hydrochloride 3%) to remove nematode parasites. Nematodes are well known for their negative effects on grouse breeding success and survival (Hudson, 1986), so removing them standardized the birds for this possible source of variation.
Laying time. Nests were located by radio tracking and their location recorded using GPS. Clutch size was measured, and all eggs were weighed (with an electronic balance, to the nearest 0.1 g) and measured (length by width, with a caliper, to the nearest 0.1 mm). Egg density was used to estimate hatch dates (see Seivwright, 2004). If clutches were incomplete at first visit, nests were revisited.
Hatching success. Around predicted hatch date (from egg measurements), nests were located using GPS and number of hatched and un-hatched eggs were recorded. Broods were located by radio-tracking hens and chicks were found and counted with the aid of trained pointer dogs.
Brood survival to 2 weeks +/−5 days and treatment of chicks. Hens were located by radio tracking and pointer dogs were used to locate chicks. As many chicks as possible were captured. […] Brood survival to 1 month days +/−5 days. Hens were located by radio tracking and pointer dogs were used to locate chicks. As many chicks as possible were captured. […] length and tick counts (around head and neck area) were recorded. A blood sample was collected in EDTA coated eppendorfs. At 1 month, because it was difficult to ensure that all the chicks were found during daytime visits with dogs, we also located hens and broods at night by radio tracking and broods were counted using lamp. This provided the best estimate of brood size at 1 month, which was used in subsequent analyses.
Brood size at fledging. Hens were located at around 45 days post hatching. Broods were then flushed and number of chicks was counted.
Statistical analyses. Tick numbers were modeled using generalized linear mixed models with brood as a random effect and using a poisson error distribution. Tick burdens are known to be much less variable within broods than between broods (Elston et al., 2001). The seasonal pattern was investigated by fitting time as julian day (days from 1st January) and the asymptotic pattern in the data was captured using a quadratic function of julian day (julian day*julian day). The interaction between time and treatment was used to determine if the pattern of tick burden varied between treatments. The relationship between tick burden and age was investigated using chick age as number of days post hatching and the quadratic function of chick age to investigate if there was a significant asymptotic relationship between average brood tick abundance and chick age (a rise and fall in tick numbers in relation to age). […]

CC1(C)C(C=C(Cl)Cl)C1C(=O)OCc1cccc(Oc2ccccc2)c1 (stereo not drawn) [permethrin]
Breeding potential = Total number of eggs laid (Moor 1, treated): 186
Clutch size (Moor 1, treated hens): 9.8 and 9.8 ± 1.3
Hatch date (Moor 1, treated hens): 28.2 ± 6.2
Breeding potential = Total number of eggs laid (Moor 2, treated): 46
Clutch size (Moor 2, treated hens): 9.45 and 9.2 ± 2.5
Hatch date (Moor 2, treated hens): 27.4 ± 4.7

Several values for one entry are separate records, joined by “and”; a condition that tells them apart may be missing. Identical values can stand only once.
